Protein sequences, listed by entry. Tags and fused reporters are not part of them. Lines headed by an entry give the natural chain unless they say otherwise; changes in a name come on top.
UniProt A0A482P071: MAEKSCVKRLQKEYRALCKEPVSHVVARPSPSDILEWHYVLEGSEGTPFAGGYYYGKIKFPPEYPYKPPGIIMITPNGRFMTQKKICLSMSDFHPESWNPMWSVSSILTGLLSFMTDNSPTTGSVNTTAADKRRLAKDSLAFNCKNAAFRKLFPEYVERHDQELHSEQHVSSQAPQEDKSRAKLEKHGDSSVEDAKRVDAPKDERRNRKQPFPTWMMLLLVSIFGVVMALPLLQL

In article PMC6416899:

Molecular target: PtoMYB156 fused to Cub (split-ubiquitin bait) (Populus tomentosa)
Test: two-hybrid; split-ubiquitin Y2H (DUALhunter), yeast NMY51; bait fused to Cub, prey fused to NubG; growth on synthetic medium lacking Leu, Trp and His and beta-Gal activity

Substance: full-length PtoUBC34 fused to Nub (split-ubiquitin prey) (from UniProt A0A482P071) (enzyme)
- binding: binds

No constants are given. Whether binding was seen depends on the method and setting. Binding can be weak; no strength is given.
